For this assay, the system named is RAW 264.7. The assay is described as follows: cell viability (MTT) relative to vehicle control; higher = more viable cells. The conditions noted are these: stimulus: HMGB1 5 ug/ml, 18 h.
[1] abbreviates: compound concentration: 1 ug/ml.

As usually defined, the cell viability is a read-out of living cells in per cent, often relative to untreated cells.

Counter-ions that a name gives are not always drawn. ± gives the standard deviation of the averaged measurements. The list shows a part of the results. Many values rest on one well or one pass, so single values are uncertain.

Consider `CC(C)(C)NCC(O)c1ccc(O)c(CO)c1` (stereo not drawn) [Salbutamol], for which the cell viability (compound concentration: 3 uM) was found to be 98.7 ± 4.7%.
Same read-out and setting: the figure for `CC(C)(C)NCC(O)c1ccc(O)c(CO)c1` (stereo not drawn) is 91.2%; for `CC(C)(C)NCC(O)c1ccc(O)c(CO)c1` (stereo not drawn) [Albuterol hemisulfate] it is 116%.
Same read-out and setting: the figure for `CCCCCCCC/C=C\CCCCCCCC(=O)O` [Oleic Acid] is 104%.
As to `Cn1c(=O)c2c(ncn2C)n(C)c1=O` [Caffeine], the cell viability by setting is: under setting [1], 92.8%; (compound concentration: 3 uM) 108 ± 12%.
Take `Cn1c(=O)c2c(ncn2C)n(C)c1=O`: the cell viability (compound concentration: 3 uM) amounted to 104%.
The same measure, in the same setting: the figure for `[N-]=[N+]=Nc1ccc(C(=O)CSC[C@H](NC(=O)CC[C@H](N)C(=O)O)C(=O)NCC(=O)O)cc1` [S-(p-Azidophenacyl)glutathione] is 77.2%; for `Cc1c(OCC(F)(F)F)ccnc1C[S+]([O-])c1nc2ccccc2[nH]1` (stereo not drawn) it is 103 ± 7%.
Same read-out and setting: the figure for `Cc1c(OCC(F)(F)F)ccnc1C[S+]([O-])c1nc2ccccc2[nH]1` (stereo not drawn) [Lansoprazole] is 99 ± 3.3%; for `CCN1CCCC1CNC(=O)c1cc(S(=O)(=O)CC)c(N)cc1OC` (stereo not drawn) [Amisulpride] it is 108 ± 9.5%.
On the same count and under the same terms, the figure for `Nc1nc(N)nc(-c2cc(Cl)ccc2Cl)n1` [Irsogladine Maleate] is 106%; for `Nc1nc(N)nc(-c2cc(Cl)ccc2Cl)n1` it is 92.9%; for `Nc1nc(N)nc(-c2cc(Cl)ccc2Cl)n1` [Irsogladine] it is 101%.
Regarding `COc1cc(N)c(Cl)cc1C(=O)NC1CCN(Cc2ccccc2)CC1` [Clebopride maleate], the cell viability (compound concentration: 3 uM) came out at 96.8%.
With `COc1cc(N)c(Cl)cc1C(=O)NC1CCN(Cc2ccccc2)CC1`, the cell viability (compound concentration: 3 uM) was 114%.
The same measure, in the same setting: the figure for `S=P(N1CC1)(N1CC1)N1CC1` is 108 ± 14%; for `CCc1c(C(=O)NCCc2ccc(N3CCCCC3)cc2)[nH]c2ccc(Cl)cc12` it is 102%.
For the compound `COc1cc2oc(=O)cc(C)c2cc1OC` [6,7-Dimethoxy-4-methylcoumarin], the cell viability under setting [1] turned out to be 96.6%.
Take `COc1ccccc1OCCNCC(O)COc1cccc2[nH]c3ccccc3c12` (stereo not drawn) [Carvedilol]: the cell viability (compound concentration: 3 uM) came to 102 ± 8.6%.
Turning to `COc1ccccc1OCCNCC(O)COc1cccc2[nH]c3ccccc3c12` (stereo not drawn), the cell viability (compound concentration: 3 uM) was 98.2%.
The same measure, in the same setting: the figure for `CCCOC(=O)c1c(-c2ccccc2)nc(CC)c(C(=O)SCC)c1CCC` is 103%.
`CC(C)c1nc(CN(C)C(=O)N[C@H](C(=O)N[C@@H](Cc2ccccc2)C[C@H](O)[C@H](Cc2ccccc2)NC(=O)OCc2cncs2)C(C)C)cs1`: under “compound concentration: 3 uM”, the cell viability is 98.4%.
The same measure, in the same setting: to `COc1ccc(CCCOC(Cn2ccnc2)c2ccc(OC)cc2)cc1` (stereo not drawn) belongs 108%.
Still for that read-out and setting: to `CC(=O)Oc1cccc(C(=O)O)c1OC(C)=O` belongs 112%; to `COc1c(O)cc2c(c1O)[C@@H]1O[C@H](CO)[C@@H](O)[C@H](O)[C@H]1OC2=O`, 113%.
On to `CC(C)[C@H]1CC[C@H](C(=O)N[C@H](Cc2ccccc2)C(=O)O)CC1` [Nateglinide], for which the cell viability (compound concentration: 3 uM) amounted to 116%.
On the same count and under the same terms, the figure for `CC(C)[C@H]1CC[C@H](C(=O)N[C@H](Cc2ccccc2)C(=O)O)CC1` is 104 ± 8.5%; for `CCCCOc1ccc(OCCCN2CCOCC2)cc1` [Pramoxine hydrochloride] it is 110%.
On the same count and under the same terms, to `CCCCOc1ccc(OCCCN2CCOCC2)cc1` belongs 113%; to `CC1(C)S[C@@H]2[C@H](/N=C/N3CCCCCC3)C(=O)N2[C@H]1C(=O)O`, 97%.
Still for that read-out and setting: the figure for `O=C(NCC1CCCCN1)c1cc(OCC(F)(F)F)ccc1OCC(F)(F)F` (stereo not drawn) [Flecainide acetate] is 132%; for `O=C(NCC1CCCCN1)c1cc(OCC(F)(F)F)ccc1OCC(F)(F)F` (stereo not drawn) [Flecainide] it is 112%; for `CC1CCc2cc(F)cc3c(=O)c(C(=O)O)cn1c23` (stereo not drawn) [Flumequine] it is 100%.
Consider `CC1CCc2cc(F)cc3c(=O)c(C(=O)O)cn1c23` (stereo not drawn), for which the cell viability (compound concentration: 3 uM) came out at 108%.
Still for that read-out and setting: to `N[C@H](C(=O)O)[C@H](Cc1ccccc1)C(=O)O` [L-Beta-threo-benzyl-aspartate] belongs 114%; to `CC1(C)S[C@@H]2[C@H](N3C(=O)[C@@H](c4ccccc4)NC3(C)C)C(=O)N2[C@H]1C(=O)O`, 105%.
On the same count and under the same terms, the figure for `CCOC(=O)C1=C(C)NC(C)=C(C(=O)OC)C1c1cccc([N+](=O)[O-])c1` (stereo not drawn) is 97.2 ± 4.1%.
As for `CCOC(=O)C1=C(C)NC(C)=C(C(=O)OC)C1c1cccc([N+](=O)[O-])c1` (stereo not drawn) [Nitrendipine], the cell viability (compound concentration: 3 uM) is 100 ± 8.8%.
Same read-out and setting: the figure for `Cc1nc2c(OCc3ccccc3)cccn2c1CC#N` is 94.2%; for `CN(C)c1nc(N)c(C(=O)NC(=N)N)nc1Cl` [5-(N,N-Dimethyl)amiloride hydrochloride] it is 106%.
For `CCn1cc(C(=O)O)c(=O)c2cc(F)c(N3CCNCC3)cc21`, under “compound concentration: 3 uM”, the cell viability was found to be 105%.
For `CCn1cc(C(=O)O)c(=O)c2cc(F)c(N3CCNCC3)cc21` [Norfloxacin], the cell viability (compound concentration: 3 uM) was 105 ± 11%.
Still for that read-out and setting: to `O=C(c1ccc(OCCN2CCCCC2)cc1)c1c(-c2ccc(O)cc2)sc2cc(O)ccc12` [Raloxifene] belongs 118%; to `O=C(c1ccc(OCCN2CCCCC2)cc1)c1c(-c2ccc(O)cc2)sc2cc(O)ccc12` [Raloxifene hydrochloride], 114 ± 12%; to `O=C(c1ccc(OCCN2CCCCC2)cc1)c1c(-c2ccc(O)cc2)sc2cc(O)ccc12`, 104%.
Still for that read-out and setting: to `NS(=O)(=O)c1cc2c(cc1C(F)(F)F)NC(Cc1ccccc1)NS2(=O)=O` (stereo not drawn) [Bendroflumethiazide] belongs 131%; to `NS(=O)(=O)c1cc2c(cc1C(F)(F)F)NC(Cc1ccccc1)NS2(=O)=O` (stereo not drawn), 103%; to `O=C(CCCCCCCCCCCCC1CCCC1)Nc1ccc(S(=O)(=O)c2ccc(NC(=O)CCCCCCCCCCCCC3CCCC3)cc2)cc1`, 72.4%.
Still for that read-out and setting: to `CC(CN1c2ccccc2Sc2ccccc21)N(C)C` (stereo not drawn) [Promethazine hydrochloride] belongs 96.1 ± 1.4%.
With `CC(CN1c2ccccc2Sc2ccccc21)N(C)C` (stereo not drawn), for the setting “compound concentration: 3 uM”, the cell viability worked out at 110%.
Same read-out and setting: to `CC(CN1c2ccccc2Sc2ccccc21)N(C)C` (stereo not drawn) [Promethazine] belongs 110%; to `Cn1nnnc1SCC1=C(C(=O)O)N2C(=O)[C@@H](NC(=O)[C@H](OC=O)c3ccccc3)[C@H]2SC1`, 105%.
`NC[C@@H]1O[C@H](c2ccccc2)Cc2c1ccc(O)c2O`: for the setting “compound concentration: 3 uM”, the cell viability was found to be 111%.
`O=C1CC2(CCCC2)CC(=O)N1CCNCC1COc2ccccc2O1` (stereo not drawn): for the setting “compound concentration: 3 uM”, the cell viability was found to be 104%.
The same measure, in the same setting: to `CCOC(=O)[C@H](CCc1ccccc1)N[C@@H](C)C(=O)N1CCC[C@H]1C(=O)O` belongs 107%; to `CCOC(=O)[C@H](CCc1ccccc1)N[C@@H](C)C(=O)N1CCC[C@H]1C(=O)O` [Enalapril maleate], 104%; to `CCOC(=O)[C@H](CCc1ccccc1)N[C@@H](C)C(=O)N1CCC[C@H]1C(=O)O` [Enalapril], 105%.
On the same count and under the same terms, to `CO/N=C(\C(=O)N[C@@H]1C(=O)N2C(C(=O)O)=C(C[N+]3(C)CCCC3)CS[C@H]12)c1csc(N)n1` [Cefepime hydrochloride] belongs 94%; to `NOCC(=O)O` [O-(Carboxymethyl)hydroxylamine hemihydrochloride], 106%.
On the same count and under the same terms, to `C[C@]12CC[C@@H]3c4ccc(O)cc4CC[C@H]3[C@@H]1C[C@H](O)[C@@H]2O` belongs 101%; to `CC(Oc1c(Cl)cccc1Cl)C1=NCCN1` (stereo not drawn) [Lofexidine], 92.5 ± 12%.
On to `CC(Oc1c(Cl)cccc1Cl)C1=NCCN1` (stereo not drawn), for which, where the note is “compound concentration: 3 uM”, the cell viability stood at 102%.
On the same count and under the same terms, to `CC1=C(CC(=O)O)c2cc(F)ccc2/C1=C\c1ccc([S+](C)[O-])cc1` (stereo not drawn) belongs 101%; to `CC1=C(CC(=O)O)c2cc(F)ccc2/C1=C\c1ccc([S+](C)[O-])cc1` (stereo not drawn) [Sulindac], 105 ± 12%; to `CC[N+](CC)(CC)CCC(O)(c1ccccc1)C1CCCCC1` (stereo not drawn) [Tridihexethyl chloride], 95.6%.
Same read-out and setting: to `Cc1noc(NS(=O)(=O)c2ccc(N)cc2)c1C` belongs 96.9%; to `Cc1noc(NS(=O)(=O)c2ccc(N)cc2)c1C` [Sulfisoxazole], 93.5%; to `CCc1cccc2c3c([nH]c12)C(CC)(CC(=O)O)OCC3` (stereo not drawn) [Etodolac], 103 ± 15%.
For the compound `CCc1cccc2c3c([nH]c12)C(CC)(CC(=O)O)OCC3` (stereo not drawn), the cell viability (compound concentration: 3 uM) was determined as 107%.
Regarding `CCCCC(=O)O[C@]1(C(=O)CO)CC[C@H]2[C@@H]3CCC4=CC(=O)CC[C@]4(C)[C@H]3[C@@H](O)C[C@@]21C` [Hydrocortisone 17-valerate], the cell viability under setting [1] is 109%.
In the case of `CCCCC(=O)O[C@]1(C(=O)CO)CC[C@H]2[C@@H]3CCC4=CC(=O)CC[C@]4(C)[C@H]3[C@@H](O)C[C@@]21C`, the cell viability (compound concentration: 3 uM) is 124%.
With `OC1CCN2Cc3ccccc3N=C12` (stereo not drawn) [Peganine], the cell viability under setting [1] is 98%.
`C[C@]12CC[C@@H]3c4ccc(O)cc4CC[C@H]3[C@@H]1C[C@@H](O)[C@@H]2O`: the cell viability (compound concentration: 3 uM) came to 112%.
In the case of `C[C@]12CC[C@@H]3c4ccc(O)cc4CC[C@H]3[C@@H]1C[C@@H](O)[C@@H]2O` [Estriol], where the note is “compound concentration: 3 uM”, the cell viability turned out to be 102 ± 6.2%.
As to `CN(C)CCCO[C@@H]1[C@H]2OC(C)(C)O[C@H]2O[C@@H]1[C@H](O)CO`, where the note is “compound concentration: 3 uM”, the cell viability is 102%.
Still for that read-out and setting: to `CN(C)CCCO[C@@H]1[C@H]2OC(C)(C)O[C@H]2O[C@@H]1[C@H](O)CO` [Amiprilose hydrochloride] belongs 96.7 ± 3.6%; to `C=CC1=C(C(=O)O)N2C(=O)[C@@H](NC(=O)/C(=N\OCC(=O)O)c3csc(N)n3)[C@H]2SC1`, 106%.
Same read-out and setting: to `C=CC1=C(C(=O)O)N2C(=O)[C@@H](NC(=O)/C(=N\OCC(=O)O)c3csc(N)n3)[C@H]2SC1` [Cefixime] belongs 127%; to `OCCOCCN1CCN(C(c2ccccc2)c2ccc(Cl)cc2)CC1` (stereo not drawn) [Hydroxyzine dihydrochloride], 101%; to `OCCOCCN1CCN(C(c2ccccc2)c2ccc(Cl)cc2)CC1` (stereo not drawn), 104%.
In the case of `O=C1NCC=C2c3cccc(Cl)c3NC12` (stereo not drawn) [8-Chlro-1-tetrahydronorharmanone], the cell viability under setting [1] came to 91.2%.
`O=C1N(c2ccccc2)c2ccccc2C1(Cc1ccncc1)Cc1ccncc1`: the cell viability (compound concentration: 3 uM) amounted to 107%.
Still for that read-out and setting: the figure for `O=C1N(c2ccccc2)c2ccccc2C1(Cc1ccncc1)Cc1ccncc1` [Linopirdine] is 104%; for `CN(C)CCC(c1ccc(Br)cc1)c1ccccn1` (racemic) [(±)-Brompheniramine maleate] it is 97.7%.
On to `CC(=O)Nc1nc2nc[nH]c2c(=O)[nH]1` [N-2-Acetylguanine], for which the cell viability under setting [1] worked out at 92.7%.
With `Cc1ccccc1N1C(=O)c2cc(S(N)(=O)=O)c(Cl)cc2NC1C` (stereo not drawn), where the note is “compound concentration: 3 uM”, the cell viability came out at 102%.
`Cc1ccccc1N1C(=O)c2cc(S(N)(=O)=O)c(Cl)cc2NC1C` (stereo not drawn) [Metolazone]: under “compound concentration: 3 uM”, the cell viability is 98.6 ± 14%.

Values taken from the supplement of paper PMC3682954.
